Measured values as given in PMC10403143.
No constants are given. Whether binding was seen depends on the method and setting. Binding seen in cells or lysates may run through a third protein. Here binding means that the protein was enriched with, or labelled near, the bait; the list need not be complete.

Chains of the proteins cited; added tags and fusions are not shown. Residues count along the entry.
UniProt O08852, residues 24-4293: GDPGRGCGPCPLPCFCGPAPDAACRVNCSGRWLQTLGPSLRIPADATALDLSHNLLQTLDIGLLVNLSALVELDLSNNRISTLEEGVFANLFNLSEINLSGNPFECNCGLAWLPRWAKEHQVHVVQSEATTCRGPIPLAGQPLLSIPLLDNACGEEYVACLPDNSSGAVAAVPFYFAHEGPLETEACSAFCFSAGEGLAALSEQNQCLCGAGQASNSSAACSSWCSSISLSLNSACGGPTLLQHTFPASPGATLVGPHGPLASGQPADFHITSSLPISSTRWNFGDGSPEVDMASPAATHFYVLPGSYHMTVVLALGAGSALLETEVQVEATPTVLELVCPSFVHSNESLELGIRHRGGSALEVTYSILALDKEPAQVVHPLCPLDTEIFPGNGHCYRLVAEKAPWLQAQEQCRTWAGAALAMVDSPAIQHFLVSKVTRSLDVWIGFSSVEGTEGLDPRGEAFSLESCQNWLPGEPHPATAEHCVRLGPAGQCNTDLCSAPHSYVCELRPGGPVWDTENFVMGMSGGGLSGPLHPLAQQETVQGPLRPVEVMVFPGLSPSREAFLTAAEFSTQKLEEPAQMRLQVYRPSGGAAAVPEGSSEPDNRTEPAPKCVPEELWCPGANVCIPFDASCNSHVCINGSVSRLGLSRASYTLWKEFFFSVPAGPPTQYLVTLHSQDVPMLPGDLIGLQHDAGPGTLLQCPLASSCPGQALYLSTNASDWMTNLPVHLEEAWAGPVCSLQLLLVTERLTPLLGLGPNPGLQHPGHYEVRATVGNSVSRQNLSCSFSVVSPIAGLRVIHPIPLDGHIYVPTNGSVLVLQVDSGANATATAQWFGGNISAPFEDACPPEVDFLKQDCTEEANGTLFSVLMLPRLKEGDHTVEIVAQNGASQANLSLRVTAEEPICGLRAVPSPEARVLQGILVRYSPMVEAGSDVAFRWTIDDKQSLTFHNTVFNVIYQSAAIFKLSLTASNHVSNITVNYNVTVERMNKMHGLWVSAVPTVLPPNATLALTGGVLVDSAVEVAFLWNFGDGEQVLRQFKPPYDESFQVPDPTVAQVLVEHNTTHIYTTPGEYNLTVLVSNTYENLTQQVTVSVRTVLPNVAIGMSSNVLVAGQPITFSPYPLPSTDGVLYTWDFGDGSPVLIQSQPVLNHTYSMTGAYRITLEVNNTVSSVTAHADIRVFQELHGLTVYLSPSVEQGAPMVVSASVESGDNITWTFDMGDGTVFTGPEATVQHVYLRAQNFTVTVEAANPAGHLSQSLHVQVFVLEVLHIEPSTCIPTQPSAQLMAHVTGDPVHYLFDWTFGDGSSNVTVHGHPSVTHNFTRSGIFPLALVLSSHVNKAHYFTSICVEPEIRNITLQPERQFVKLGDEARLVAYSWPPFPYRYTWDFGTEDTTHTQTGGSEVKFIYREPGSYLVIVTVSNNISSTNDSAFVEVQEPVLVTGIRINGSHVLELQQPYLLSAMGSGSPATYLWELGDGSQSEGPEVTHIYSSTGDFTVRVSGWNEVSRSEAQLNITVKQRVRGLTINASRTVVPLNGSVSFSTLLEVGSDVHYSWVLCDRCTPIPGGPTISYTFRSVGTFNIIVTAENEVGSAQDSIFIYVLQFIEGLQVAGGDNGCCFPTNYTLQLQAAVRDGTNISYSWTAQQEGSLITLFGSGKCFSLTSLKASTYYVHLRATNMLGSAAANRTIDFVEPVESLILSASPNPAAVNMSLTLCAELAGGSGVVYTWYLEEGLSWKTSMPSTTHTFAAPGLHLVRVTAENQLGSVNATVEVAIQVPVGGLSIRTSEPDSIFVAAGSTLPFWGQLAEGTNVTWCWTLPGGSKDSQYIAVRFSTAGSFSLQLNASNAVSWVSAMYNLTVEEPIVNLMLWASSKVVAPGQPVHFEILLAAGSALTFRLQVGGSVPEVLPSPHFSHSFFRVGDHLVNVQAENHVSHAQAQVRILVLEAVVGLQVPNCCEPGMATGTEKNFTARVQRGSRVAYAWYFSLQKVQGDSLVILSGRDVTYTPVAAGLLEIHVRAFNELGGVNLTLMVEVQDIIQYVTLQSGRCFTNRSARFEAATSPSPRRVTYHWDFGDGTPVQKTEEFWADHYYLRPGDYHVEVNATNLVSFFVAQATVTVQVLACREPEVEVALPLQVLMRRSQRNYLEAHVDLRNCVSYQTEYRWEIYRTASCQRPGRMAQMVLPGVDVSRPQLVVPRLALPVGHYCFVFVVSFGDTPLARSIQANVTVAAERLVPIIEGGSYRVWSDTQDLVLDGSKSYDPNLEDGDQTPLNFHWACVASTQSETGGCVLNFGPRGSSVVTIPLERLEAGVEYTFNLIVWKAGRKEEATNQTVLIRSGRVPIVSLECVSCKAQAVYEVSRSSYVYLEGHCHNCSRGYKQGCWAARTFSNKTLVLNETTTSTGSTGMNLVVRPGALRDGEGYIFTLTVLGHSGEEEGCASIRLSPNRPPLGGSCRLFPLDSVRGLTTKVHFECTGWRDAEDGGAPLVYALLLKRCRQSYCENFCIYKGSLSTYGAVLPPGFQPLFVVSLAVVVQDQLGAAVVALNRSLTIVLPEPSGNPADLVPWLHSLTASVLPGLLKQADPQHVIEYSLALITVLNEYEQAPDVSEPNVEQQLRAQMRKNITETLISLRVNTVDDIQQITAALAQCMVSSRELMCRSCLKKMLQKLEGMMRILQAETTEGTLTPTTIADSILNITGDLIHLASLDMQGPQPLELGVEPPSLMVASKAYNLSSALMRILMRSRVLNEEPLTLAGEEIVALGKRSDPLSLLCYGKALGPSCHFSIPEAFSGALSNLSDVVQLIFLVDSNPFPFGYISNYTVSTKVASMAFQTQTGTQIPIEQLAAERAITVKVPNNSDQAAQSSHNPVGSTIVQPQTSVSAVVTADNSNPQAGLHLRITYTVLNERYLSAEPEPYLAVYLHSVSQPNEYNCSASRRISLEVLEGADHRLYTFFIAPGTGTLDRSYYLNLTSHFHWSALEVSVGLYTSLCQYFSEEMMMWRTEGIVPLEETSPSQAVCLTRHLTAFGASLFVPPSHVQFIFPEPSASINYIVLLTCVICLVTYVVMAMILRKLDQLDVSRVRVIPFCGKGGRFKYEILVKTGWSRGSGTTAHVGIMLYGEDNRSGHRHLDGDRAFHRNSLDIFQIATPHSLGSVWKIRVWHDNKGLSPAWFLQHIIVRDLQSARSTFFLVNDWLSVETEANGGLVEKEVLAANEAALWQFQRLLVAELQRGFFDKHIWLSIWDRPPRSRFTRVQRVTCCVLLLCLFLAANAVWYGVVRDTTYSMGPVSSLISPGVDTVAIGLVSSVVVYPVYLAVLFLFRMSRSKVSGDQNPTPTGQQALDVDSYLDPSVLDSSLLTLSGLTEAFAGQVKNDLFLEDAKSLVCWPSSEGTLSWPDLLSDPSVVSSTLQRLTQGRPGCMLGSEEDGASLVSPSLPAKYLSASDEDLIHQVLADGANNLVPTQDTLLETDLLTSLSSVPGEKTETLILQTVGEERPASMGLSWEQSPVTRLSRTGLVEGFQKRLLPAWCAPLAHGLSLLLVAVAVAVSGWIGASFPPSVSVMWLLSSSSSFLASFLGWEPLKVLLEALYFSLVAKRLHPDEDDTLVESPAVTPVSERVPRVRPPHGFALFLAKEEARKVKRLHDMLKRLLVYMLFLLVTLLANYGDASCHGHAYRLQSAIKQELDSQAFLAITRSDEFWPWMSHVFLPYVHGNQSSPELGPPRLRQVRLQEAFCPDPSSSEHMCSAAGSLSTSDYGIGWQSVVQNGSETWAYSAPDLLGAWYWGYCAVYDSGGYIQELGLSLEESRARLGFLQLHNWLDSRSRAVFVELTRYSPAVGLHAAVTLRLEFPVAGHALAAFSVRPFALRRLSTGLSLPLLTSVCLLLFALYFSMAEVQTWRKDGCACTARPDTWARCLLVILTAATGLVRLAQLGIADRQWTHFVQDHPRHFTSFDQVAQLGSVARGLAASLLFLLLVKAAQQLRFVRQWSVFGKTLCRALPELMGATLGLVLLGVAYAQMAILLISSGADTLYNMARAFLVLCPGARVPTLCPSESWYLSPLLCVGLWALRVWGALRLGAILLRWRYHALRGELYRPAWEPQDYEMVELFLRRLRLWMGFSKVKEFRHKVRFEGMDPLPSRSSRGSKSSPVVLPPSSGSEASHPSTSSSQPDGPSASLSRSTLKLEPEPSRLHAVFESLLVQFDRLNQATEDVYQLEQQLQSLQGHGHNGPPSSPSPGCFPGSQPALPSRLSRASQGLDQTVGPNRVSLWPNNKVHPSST

Target: Polycystin-1 with eGFP and three HA tags at its C-terminus, from the Pkd1^eGFP knock-in allele (mouse) (UniProt O08852)
Assay: affinity purification with mass spectrometry; GFP-trap IP from lysates of 8 P1 mouse heads per genotype (Pkd1^eGFP/eGFP against Pkd1^wt/wt, about 80 mg protein), low-stringency fast washes. Three experiments; MaxQuant non-normalized enrichment ratios.

- binding: binds
B1: nicotinamide nucleotide transhydrogenase (protein, UniProt Q61941 44-1086)
chain: CKSPVKPGIPYKQLTVGVPKEIFQNEKRVALSPAGVQALVKQGFNVVVESGAGEASKFPDDLYRAAGAQIQGMKEVLASDLVVKVRAPMVNPTLGAHEADFLKPSGTLISFIYPAQNPDLLNKLSERKTTVLAMDQVPRVTIAQGYDALSSMANISGYKAVVLAANHFGRFFTGQITAAGKVPPAKILIVGGGVAGLASAGAAKSMGAVVRGFDTRAAALEQFKSLGAEPLEVDLKESGEGQGGYAKEMSKEFIEAEMKLFAQQCKEVDILISTALIPGKKAPVLFSKEMIESMKEGSVVVDLAAEAGGNFETTKPGELYVHKGITHIGYTDLPSRMATQASTLYSNNITKLLKAISPDKDNFHFEVKDDFDFGTMSHVIRGTVVMKDGKVIFPAPTPKNIPEEAPVKPKTVAELEAEKAGTVSMYTKTLTTASVYSAGLTGMLGLGIVAPNVAFSQMVTTFGLAGIIGYHTVWGVTPALHSPLMSVTNAISGLTAVGGLALMGGHFYPSTTSQSLAALATFISSVNIAGGFLVTQRMLDMFKRPTDPPEYNYLYLLPGGTFVGGYLAALYGGYNIEEIMYLGSGLCCVGALGGLSTQGTARLGNALGMIGVAGGLAATLGGLKPDPQLLAQMSGAMAMGGTIGLTIAKRIQISDLPQLVAAFHSLVGLAAVLTCMAEYIVEYPHFAMDATSNFTKIVAYLGTYIGGVTFSGSLVAYGKLQGILKSAPLLLPGRHALNAGLLAASVGGIIPFMADPSFTTGITCLGSVSGLSTLMGVTLTAAIGGADMPVVITVLNSYSGWALCAEGFLLNNNLLTIVGALIGSSGAILSYIMCVAMNRSLANVILGGYGTTSTAGGKPMEISGTHTEINLDNAVEMIREANSIVITPGYGLCAAKAQYPIADLVKMLTEQGKKVRFGIHPVAGRMPGQLNVLLAEAGVPYDIVLEMDEINSDFPDTDLVLVIGANDTVNSAAQEDPNSIIAGMPVLEVWKSKQVIVMKRSLGVGYAAVDNPIFYKPNTAMLLGDAKKTCDALQAKVRESYQK
